The nature of the series: general procedure: Fmoc solid-phase peptide synthesis; H-Cys(4-methoxytrityl)-2-chlorotrityl-Resin (loading 0.56 mmol/g); Fmoc-AA-Wang resin; PyBOP, DIPEA. As to conditions: for isolated yield / isolated mass: whole synthesis; for conjugation yield: conjugation step.

Some peptides are written in HELM: one residue between dots, names in brackets for other building blocks, links after the first $.

The results in this text go back to patent US20140073761A1 (priority 2007, published 2014).

The substance “Tetra-Saccharo-Bis-Asp-Folate Linker EC0452” registered an isolated yield of 40%.

The substance “Tetra-Homosaccharo-Tris-αGlu-Folate Spacer EC0478” showed an isolated yield of 52%.

In turn, “Tetra-Saccharo-tris-Glu-Folate Linker EC0477” registered an isolated yield of 67%.

On to “Tetra-Saccharo-Tris-Asp-Folate Linker EC0268”, for which, under “scale 0.1 mmol”, the isolated mass entry was “˜100 mg” and the isolated yield was 63%.

With “Tetra-Saccharo-Bis-α-Glu-Arg-Folate Linker EC0480”, the isolated yield was found to be 33%.

Substance “Tetra-Saccharoglutamate-Bis-αGlu-Folate Spacer EC0491” displayed an isolated yield of 51%.

Turning to “PEPTIDE1{[Pte].[gGlu].[Sacch].D.[Sacch].D.[Sacch].C}|CHEM1{[SS-DAVLBH]}$PEPTIDE1,CHEM1,8:R3-1:R1$$$V2.0”, the conjugation yield is given as 64%.

“Tetra-Saccharo-tris-Glu-Folate Vinblastine Conjugate” yielded a conjugation yield of 61%.

Regarding Tetra-Saccharo-Asp-Folate Linker EC0463, where the note is “scale 0.1 mmol”, the isolated mass result was “˜63 mg” and the isolated yield stood at 46%.

In the case of “Tetra-Saccharo-bis-Asp-Folate Linker EC0457”, the isolated yield was determined as 71%.

On to “Tetra-Saccharo-bis-Asp-Folate Vinblastine Conjugate”, for which the conjugation yield was found to be 62%.

For the substance Bis-Saccharo-Folate Linker EC0244, under “scale 0.56 mmol”, the isolated mass result is recorded as “˜284 mg” and the isolated yield turned out to be 50%.

“EC0258 (Tris-Saccharo-Asp-Folate Vinblastine Conjugate)” gave a conjugation yield of 62%.

Consider “Tetra-Saccharo-Asp-Folate Vinblastine Conjugate”, for which the conjugation yield worked out at 84%.

In turn, “PEPTIDE1{[Pte].[gGlu].[Sacch].D.[Sacch].D.[Sacch].D.[Sacch].C}|CHEM1{[SS-DAVLBH]}$PEPTIDE1,CHEM1,10:R3-1:R1$$$V2.0” yielded a conjugation yield of 62%.

In turn, “PEPTIDE1{[Pte].[gGlu].D.R.D.D.C}|CHEM1{[SS-DAVLBH]}$PEPTIDE1,CHEM1,7:R3-1:R1$$$V2.0” yielded a conjugation yield of 70%.

Substance “EC0454 (Tetra-Saccharo-Bis-Asp-Folate Vinblastine Conjugate)” registered a conjugation yield of 70%.

In the case of “Tetra-Saccharo-Bis-α-Glu-Arg-Folate Vinblastine Conjugate”, the conjugation yield is 70%.

Substance “PEPTIDE1{[Pte].[gGlu].[Sacch].D.[Sacch].C}|CHEM1{[SS-DAVLBH]}$PEPTIDE1,CHEM1,6:R3-1:R1$$$V2.0” showed a conjugation yield of 66%.
